Results published in publication PMC10436584.
The exact form of at least one protein or probe is not confirmed. For some of these results: At least one verdict rests on a figure or table, not on a statement of the authors.

Sequences of proteins named here, by UniProt entry; tags and fusion partners are left off. A change or cut given only in a name is not applied to a line headed by its entry.
UniProt P97875: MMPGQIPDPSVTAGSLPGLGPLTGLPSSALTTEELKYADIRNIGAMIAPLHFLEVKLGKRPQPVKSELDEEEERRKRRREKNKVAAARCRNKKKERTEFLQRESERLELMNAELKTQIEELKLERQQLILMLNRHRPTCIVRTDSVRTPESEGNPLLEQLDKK

What was measured:
Test in all cases: EMSA
[1] = test system: GST-AhR bHLH; conditions: 5 ug GST fusion protein, 25 C, 30 min, 5% nondenaturing gel at 4 C, recombinant protein, label: 32P (T4 kinase)
[2] = target: GST-Jdp2 (UniProt P97875); conditions: 5 ug GST fusion protein, 25 C, 30 min; 5% nondenaturing gel at 4 C; recombinant protein; protein details: GST; label: 32P (T4 kinase)
[3] = test system: GST-Nrf2; conditions: 5 ug GST fusion protein, 25 C, 30 min; 5% nondenaturing gel at 4 C; recombinant protein; protein details: GST; label: 32P (T4 kinase)

| Sequence | binding result ([1]; protein details: GST) | binding result [2] | binding result ([1]; with GST-Nrf2, AhR binding seemed to be increased, protein details: …) | binding result [3] |
| --- | --- | --- | --- | --- |
| TTTCCCACAGTGACTTTCCCAAGAAAGATG / TTCCATCTTTCTTGGGAAAGTCACTGTGGG [AhR promoter ARE1 probe] | binds | binds |  |  |
| CGGGCGGCAGCGTGTGTGTGCGCTCCCTT / TCAAAGGGAGCGCACACACACGCTGCCGC [AhR promoter DRE3 probe] |  | binds | binds | binds |
| TCGGTGCCCCACGCGTGTCCCGGAGAG / AGCCTCTCCGGGACACGCGTGGGGCAC [AhR promoter DRE2 probe] |  | binds |  | binds |
